Test results taken from the supplement of paper PMC10849652.
The list shows a part of the results.

The chains behind the UniProt entries cited, without tags or fusion partners. Where a name states a change or a piece, a line headed by the entry shows the natural chain unless it says otherwise.
UniProt P01011: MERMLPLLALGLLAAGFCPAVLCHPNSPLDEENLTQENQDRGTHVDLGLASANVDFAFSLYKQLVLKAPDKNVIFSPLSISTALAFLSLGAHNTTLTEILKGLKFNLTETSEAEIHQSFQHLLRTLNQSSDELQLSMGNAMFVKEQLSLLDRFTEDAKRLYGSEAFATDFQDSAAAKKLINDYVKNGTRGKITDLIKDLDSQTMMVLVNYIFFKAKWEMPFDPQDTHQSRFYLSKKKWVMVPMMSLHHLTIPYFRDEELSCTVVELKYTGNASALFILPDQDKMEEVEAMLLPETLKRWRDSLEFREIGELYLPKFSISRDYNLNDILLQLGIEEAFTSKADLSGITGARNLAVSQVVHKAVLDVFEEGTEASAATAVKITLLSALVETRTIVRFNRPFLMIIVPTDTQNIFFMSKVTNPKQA
UniProt Q9H0K1: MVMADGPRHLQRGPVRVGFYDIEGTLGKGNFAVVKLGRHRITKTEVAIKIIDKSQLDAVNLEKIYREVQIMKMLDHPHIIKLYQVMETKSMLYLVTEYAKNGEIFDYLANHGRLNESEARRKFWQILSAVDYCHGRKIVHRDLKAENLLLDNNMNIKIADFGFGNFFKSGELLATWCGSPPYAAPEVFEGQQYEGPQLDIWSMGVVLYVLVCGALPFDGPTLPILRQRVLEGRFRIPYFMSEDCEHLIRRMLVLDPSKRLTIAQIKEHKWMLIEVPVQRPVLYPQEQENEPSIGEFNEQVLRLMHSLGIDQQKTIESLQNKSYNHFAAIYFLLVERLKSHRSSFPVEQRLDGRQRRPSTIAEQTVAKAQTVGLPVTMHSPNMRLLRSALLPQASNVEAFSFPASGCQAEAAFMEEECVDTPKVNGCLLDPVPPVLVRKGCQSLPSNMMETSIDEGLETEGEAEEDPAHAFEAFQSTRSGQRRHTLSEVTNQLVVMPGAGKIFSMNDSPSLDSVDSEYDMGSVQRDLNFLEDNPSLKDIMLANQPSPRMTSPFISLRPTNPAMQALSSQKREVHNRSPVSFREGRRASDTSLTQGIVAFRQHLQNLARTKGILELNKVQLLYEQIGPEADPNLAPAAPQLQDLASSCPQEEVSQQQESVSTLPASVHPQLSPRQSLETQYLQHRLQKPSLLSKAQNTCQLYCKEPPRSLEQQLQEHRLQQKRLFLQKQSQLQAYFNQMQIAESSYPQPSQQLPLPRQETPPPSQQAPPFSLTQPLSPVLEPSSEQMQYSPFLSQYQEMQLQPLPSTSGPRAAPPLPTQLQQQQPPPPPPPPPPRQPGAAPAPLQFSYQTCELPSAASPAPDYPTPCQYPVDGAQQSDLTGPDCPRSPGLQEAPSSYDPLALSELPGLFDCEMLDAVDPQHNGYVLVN
UniProt P60059: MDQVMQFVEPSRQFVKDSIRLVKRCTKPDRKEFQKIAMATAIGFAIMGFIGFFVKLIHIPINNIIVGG
UniProt P05155: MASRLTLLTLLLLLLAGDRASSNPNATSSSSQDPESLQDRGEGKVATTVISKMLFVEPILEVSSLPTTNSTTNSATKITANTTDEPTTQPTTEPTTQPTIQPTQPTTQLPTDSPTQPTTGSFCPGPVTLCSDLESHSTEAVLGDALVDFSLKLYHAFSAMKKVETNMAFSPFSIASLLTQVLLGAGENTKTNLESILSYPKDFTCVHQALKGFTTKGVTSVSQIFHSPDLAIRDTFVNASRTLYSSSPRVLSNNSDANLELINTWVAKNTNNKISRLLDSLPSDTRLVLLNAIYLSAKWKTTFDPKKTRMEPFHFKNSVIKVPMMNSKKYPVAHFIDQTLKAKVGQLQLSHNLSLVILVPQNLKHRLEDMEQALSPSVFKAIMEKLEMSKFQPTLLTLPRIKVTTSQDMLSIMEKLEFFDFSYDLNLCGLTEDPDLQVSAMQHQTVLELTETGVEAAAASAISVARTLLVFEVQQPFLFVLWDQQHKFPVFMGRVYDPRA
UniProt Q9NP31, whole entry, looked up: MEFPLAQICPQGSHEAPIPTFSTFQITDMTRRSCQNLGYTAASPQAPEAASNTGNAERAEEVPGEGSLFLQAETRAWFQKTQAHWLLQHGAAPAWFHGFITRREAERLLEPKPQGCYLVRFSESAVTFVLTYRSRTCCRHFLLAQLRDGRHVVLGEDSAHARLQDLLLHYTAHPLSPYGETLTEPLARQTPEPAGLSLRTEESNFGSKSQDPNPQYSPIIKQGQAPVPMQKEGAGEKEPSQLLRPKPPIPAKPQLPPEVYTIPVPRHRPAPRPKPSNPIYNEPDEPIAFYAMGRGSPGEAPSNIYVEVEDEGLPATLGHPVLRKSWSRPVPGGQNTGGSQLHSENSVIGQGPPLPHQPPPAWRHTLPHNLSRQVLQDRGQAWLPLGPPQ
UniProt Q8NC51: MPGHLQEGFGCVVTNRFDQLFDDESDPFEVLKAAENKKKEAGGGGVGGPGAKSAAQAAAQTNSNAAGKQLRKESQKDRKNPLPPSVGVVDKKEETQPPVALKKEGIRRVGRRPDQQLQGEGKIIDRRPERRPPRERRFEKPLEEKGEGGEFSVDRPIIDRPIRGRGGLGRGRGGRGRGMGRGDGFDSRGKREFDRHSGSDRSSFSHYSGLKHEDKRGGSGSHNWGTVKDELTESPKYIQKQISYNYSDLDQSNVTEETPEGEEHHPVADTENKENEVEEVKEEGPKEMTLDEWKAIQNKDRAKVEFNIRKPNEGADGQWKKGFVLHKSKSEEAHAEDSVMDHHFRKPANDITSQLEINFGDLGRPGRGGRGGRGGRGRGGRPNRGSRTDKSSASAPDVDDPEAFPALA
UniProt O43255: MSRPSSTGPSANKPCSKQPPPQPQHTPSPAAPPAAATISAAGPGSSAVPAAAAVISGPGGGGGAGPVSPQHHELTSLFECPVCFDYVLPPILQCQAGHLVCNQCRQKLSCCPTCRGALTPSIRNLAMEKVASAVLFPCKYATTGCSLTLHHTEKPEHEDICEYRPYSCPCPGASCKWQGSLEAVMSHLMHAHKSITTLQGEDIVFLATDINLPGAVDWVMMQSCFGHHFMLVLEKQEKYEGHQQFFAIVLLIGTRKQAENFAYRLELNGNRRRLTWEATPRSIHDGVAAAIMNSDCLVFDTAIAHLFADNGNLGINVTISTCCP
UniProt Q99963: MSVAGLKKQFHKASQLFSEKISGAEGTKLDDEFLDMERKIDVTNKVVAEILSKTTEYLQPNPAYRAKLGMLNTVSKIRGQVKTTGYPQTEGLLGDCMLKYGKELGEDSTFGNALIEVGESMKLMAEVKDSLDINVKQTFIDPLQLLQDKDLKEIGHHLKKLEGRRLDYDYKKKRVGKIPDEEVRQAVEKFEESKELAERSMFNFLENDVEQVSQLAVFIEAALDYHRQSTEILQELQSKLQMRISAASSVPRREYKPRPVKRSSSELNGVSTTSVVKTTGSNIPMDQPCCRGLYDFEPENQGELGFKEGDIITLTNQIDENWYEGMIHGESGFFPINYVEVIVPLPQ
UniProt Q96JX3: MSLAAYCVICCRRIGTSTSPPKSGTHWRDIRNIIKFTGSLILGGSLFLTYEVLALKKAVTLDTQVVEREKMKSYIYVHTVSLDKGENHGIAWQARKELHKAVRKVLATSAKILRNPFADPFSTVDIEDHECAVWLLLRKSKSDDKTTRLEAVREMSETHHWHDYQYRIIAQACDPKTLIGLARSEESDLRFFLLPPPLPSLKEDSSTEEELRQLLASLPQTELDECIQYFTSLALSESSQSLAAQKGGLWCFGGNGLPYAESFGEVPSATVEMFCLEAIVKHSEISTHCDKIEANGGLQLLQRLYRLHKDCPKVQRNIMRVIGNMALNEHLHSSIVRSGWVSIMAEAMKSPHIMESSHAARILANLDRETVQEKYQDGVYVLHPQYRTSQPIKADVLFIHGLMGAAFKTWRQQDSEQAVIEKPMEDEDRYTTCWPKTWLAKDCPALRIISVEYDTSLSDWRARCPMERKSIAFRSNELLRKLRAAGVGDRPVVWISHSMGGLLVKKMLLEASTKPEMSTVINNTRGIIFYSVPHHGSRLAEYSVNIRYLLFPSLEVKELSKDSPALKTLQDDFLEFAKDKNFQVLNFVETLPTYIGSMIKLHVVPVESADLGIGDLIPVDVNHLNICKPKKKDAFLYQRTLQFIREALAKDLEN
UniProt Q9NTG7: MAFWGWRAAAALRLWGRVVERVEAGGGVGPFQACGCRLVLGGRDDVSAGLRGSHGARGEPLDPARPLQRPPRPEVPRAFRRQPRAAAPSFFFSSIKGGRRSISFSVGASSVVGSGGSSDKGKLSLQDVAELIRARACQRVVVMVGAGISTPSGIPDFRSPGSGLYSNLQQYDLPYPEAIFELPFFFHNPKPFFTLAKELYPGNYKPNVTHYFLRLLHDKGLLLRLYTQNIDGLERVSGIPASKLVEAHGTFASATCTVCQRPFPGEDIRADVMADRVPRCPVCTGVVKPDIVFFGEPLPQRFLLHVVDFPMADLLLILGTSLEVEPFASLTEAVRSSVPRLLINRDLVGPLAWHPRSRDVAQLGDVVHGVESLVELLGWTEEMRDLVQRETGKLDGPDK
UniProt O75635: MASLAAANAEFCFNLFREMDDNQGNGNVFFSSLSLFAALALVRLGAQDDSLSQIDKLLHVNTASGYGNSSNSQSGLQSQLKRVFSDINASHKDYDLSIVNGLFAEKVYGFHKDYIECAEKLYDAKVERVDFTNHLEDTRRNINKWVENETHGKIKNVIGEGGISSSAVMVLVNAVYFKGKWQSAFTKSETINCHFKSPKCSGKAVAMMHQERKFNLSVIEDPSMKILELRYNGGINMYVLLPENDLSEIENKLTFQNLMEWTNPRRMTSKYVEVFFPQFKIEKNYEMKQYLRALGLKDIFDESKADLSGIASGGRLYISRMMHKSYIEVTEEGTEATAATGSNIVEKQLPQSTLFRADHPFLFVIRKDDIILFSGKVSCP
UniProt P36952: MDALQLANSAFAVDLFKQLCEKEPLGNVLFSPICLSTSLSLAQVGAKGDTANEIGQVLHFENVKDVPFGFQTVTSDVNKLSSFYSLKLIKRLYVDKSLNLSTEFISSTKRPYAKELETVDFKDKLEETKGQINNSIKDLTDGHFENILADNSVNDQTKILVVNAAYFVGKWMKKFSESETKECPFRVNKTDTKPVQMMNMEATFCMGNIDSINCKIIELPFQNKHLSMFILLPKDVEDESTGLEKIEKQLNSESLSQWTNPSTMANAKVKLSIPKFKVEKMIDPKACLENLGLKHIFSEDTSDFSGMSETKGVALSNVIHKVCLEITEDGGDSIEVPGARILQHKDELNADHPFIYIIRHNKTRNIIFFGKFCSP
UniProt P55822: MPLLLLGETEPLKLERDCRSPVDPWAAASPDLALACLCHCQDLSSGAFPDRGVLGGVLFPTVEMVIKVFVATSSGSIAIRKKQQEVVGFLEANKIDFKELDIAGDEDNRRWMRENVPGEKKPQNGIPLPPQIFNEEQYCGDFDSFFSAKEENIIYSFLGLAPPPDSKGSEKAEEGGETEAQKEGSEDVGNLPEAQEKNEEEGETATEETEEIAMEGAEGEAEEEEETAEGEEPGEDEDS
UniProt Q8N196: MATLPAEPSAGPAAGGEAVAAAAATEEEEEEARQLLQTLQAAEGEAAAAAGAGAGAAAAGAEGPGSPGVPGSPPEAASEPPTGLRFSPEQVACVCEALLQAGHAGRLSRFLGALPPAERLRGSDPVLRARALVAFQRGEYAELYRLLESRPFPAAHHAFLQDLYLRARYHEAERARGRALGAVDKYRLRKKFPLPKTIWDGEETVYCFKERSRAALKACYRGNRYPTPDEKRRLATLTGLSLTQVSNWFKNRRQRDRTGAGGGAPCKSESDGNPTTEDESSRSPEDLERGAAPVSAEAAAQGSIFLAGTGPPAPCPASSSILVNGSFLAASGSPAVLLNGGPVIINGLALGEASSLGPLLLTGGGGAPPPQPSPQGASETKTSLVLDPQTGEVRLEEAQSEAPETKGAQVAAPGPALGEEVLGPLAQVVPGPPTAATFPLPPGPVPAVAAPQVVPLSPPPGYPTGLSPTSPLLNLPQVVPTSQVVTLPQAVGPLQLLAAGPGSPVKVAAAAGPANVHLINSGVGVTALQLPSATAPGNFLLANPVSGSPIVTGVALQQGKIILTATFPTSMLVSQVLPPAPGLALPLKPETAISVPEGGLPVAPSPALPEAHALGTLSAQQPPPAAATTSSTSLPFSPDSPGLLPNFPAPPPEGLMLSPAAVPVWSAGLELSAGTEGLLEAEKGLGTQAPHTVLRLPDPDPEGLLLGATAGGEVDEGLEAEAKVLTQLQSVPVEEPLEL

compound: c1cn2cc(-c3ccc4cn[nH]c4c3)nc(Nc3ccc(N4CCOCC4)cc3)c2n1 [entospletinib]; assay: log2 fold change, soluble protein after heating vs DMSO (PISA); higher = thermal stabilisation; K562 cells, 10 uM, 30 min; active = over 0.2 and 3.5 SD of the protein, either way, in both replicates (recomputed)
Summary of the method: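 K562 cells at 2×10^6 cells/mL were treated with 10 μM compound for 30 min. Aliquots were heated for 3 min across 48°C-58°C, pooled, and extracted in PBS with 0.5% NP-40 at 4°C; soluble protein was the supernatant after 21,000xg for 90 min. Soluble protein was quantified by TMTpro 16plex LC-MS/MS with channel sums equalised, and reported as log2 fold change in thermal stability against DMSO controls, with values from duplicates.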

log2 fold change, inactive:
SERPINA3 (UniProt P01011) -0.027, SIK2 (UniProt Q9H0K1) -0.152, SEC61G (UniProt P60059) 0.064, SERPING1 isoform 3 (UniProt P05155) 0.172, SH2D2A isoform 2 (UniProt Q9NP31) 0.077, SERBP1 isoform 3 (UniProt Q8NC51) 0.014, SIAH2 (UniProt O43255) -0.072, SH3GL3 isoform 3 (UniProt Q99963) -0.287, SERAC1 (UniProt Q96JX3) 0.159, SIRT3 (UniProt Q9NTG7) 0.084, SF1 (UniProt H7C0N4) 0.027, SIGIRR (UniProt H0YDR5) -0.071, SERPINB7 (UniProt O75635) -0.052, SERPINB5 (UniProt P36952) 0.027, SEPTIN2 (UniProt B5MCX3) 0.104, SH3BGR (UniProt P55822) -0.06, SIX5 (UniProt Q8N196) -0.047
